Results published in US10786503B2, “Treatment of adipocytes” (Melior Pharmaceuticals I, Inc., priority 2017, dated 2020).
At least one structure is not confirmed: it was looked up by name or label, or the drawing left a doubt.

System: Compound 102-induced UCP1 expression
Test: Effect of inhibitors on Compound 102-induced UCP1 expression
Format: cell-based, human
Details: over 4 days; LY294002 20 NM, H89 20 μM; FIG. 9
Description: Human adipocyte precursor cells isolated from subcutaneous abdominal fat were purchased from LaCell, LLC, New Orleans, La. Cells were seeded and grown to confluence in DMEM/F12 with 10% heat inactivated FBS. Differentiation to mature adipocytes was induced in medium composed of 70% DMEM and 30% DMEMF12 supplemented with 3% FBS, 1 μM dexamethasone (Sigma D4902), […] biotin (Sigma B4639), 100 nM insulin (Sigma 15500), 20 μM pantothenate (Sigma P5155), 5 μM rosiglitazone (AK Scientific F325) and […] (Sigma 15879) for four days. Cells were maintained in medium composed of 70% DMEM and 30% DMEMF12 supplemented with 3% FBS, 1 μM dexamethasone, 33 μM biotin, 100 nM insulin, and 20 NM pantothenate for seven days before experimental treatment.
Total RNA was isolated from adipocyte cultures grown in 12-well plates using Trizol and Qiagen RNAeasy kits. Reverse transcriptase and PCR were conducted in one reaction with the reverse PCR primer priming cDNA synthesis using SuperScript® III Platinum® One-Step Quantitative RT-PCR System with Rox from Invitrogen (11745). Predesigned Taqman primer-probe sets were purchased from Applied Biosystems for the following human transcript sequences: UCP1 (Hs249211), PPARGC1α (HS527078), PPARU (Hs103110), CPT1b (Hs439777), and GLUT4/SLC2A4 (Hs380691). Aplicons were designed to span an intron-exon junction to avoid amplification of genomic sequences. […]

O=c1cc(N2CCOCC2)oc2c(-c3ccccc3)cccc12 [LY294002]
Compound 102-induced UCP1 mRNA in presence of inhibitor: reduced UCP1 mRNA to levels of unstimulated controls or lower
